± gives the standard deviation of the averaged measurements. The list shows a part of the results.
Tests used:
Test in all cases: NP40-soluble protein abundance relative to vehicle (solubility fold change) (ratio); higher = more soluble protein in presence of GTP
UQCRFS1 = target: T1, UQCRFS1 (UniProt P47985)
T1 sequence (whole entry): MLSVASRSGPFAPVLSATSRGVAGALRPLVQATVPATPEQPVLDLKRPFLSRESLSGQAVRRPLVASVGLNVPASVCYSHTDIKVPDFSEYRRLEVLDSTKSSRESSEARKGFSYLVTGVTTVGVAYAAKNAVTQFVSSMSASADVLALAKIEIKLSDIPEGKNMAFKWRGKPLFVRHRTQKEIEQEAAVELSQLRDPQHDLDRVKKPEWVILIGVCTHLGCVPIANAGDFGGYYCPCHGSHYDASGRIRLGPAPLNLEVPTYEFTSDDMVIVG
In short: (§1)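 Values are fold changes against the detergent-processed vehicle, based on vsn-normalised intensities. Jurkat crude lysate was treated at eight concentrations from 0.1 to 10 mM (10 min at room temperature, then 3 min at 37 °C), solubilised with 0.8% NP40 and benzonase, ultracentrifuged and analysed by TMT-labelled LC-MS/MS over three independent experiments.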

[1] = target: T2, UniProt P31350 and related entries
T2 sequence (whole entry): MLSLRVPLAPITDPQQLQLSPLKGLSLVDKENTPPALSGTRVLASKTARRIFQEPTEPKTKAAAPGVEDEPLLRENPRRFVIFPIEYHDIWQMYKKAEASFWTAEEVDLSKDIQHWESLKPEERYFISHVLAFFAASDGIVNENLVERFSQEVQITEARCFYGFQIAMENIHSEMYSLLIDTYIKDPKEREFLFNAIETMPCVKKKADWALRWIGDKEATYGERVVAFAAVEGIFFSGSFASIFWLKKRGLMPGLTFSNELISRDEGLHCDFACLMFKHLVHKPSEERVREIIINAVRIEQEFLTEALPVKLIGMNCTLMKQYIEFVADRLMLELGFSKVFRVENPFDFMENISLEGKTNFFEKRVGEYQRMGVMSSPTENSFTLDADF
In short: as §1

[2] = target: T3, UniProt P32856 and related entries
T3 sequence (whole entry): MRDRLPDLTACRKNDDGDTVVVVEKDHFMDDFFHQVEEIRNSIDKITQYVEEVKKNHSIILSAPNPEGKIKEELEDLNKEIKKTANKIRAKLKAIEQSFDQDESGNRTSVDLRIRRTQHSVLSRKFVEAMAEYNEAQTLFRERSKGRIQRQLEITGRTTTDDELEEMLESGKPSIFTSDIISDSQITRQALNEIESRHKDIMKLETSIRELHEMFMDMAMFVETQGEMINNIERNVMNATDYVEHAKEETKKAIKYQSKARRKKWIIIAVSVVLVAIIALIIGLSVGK
In short: as §1

UniProt P35626 = target: T4, UniProt P35626
T4 sequence (whole entry): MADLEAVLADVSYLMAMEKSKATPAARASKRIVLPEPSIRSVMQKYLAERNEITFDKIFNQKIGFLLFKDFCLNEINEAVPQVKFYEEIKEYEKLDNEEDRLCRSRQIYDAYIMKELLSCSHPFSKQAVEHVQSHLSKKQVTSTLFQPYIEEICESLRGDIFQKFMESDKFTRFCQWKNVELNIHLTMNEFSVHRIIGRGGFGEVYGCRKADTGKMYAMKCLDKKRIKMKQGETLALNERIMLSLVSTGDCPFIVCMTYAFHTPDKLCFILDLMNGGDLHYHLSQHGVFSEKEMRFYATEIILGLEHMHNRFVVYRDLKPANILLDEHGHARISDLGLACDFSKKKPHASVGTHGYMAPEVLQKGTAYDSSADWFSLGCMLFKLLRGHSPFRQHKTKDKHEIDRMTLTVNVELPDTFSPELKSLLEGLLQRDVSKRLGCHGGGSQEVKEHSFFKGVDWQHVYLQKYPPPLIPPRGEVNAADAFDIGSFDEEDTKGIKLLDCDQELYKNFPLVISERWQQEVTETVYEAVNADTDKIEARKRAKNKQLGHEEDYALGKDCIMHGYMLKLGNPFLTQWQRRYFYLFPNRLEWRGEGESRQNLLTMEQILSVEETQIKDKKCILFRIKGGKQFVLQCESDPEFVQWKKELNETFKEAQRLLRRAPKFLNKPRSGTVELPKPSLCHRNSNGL
In short: as §1

[3] = target: T5, UniProt P42224 and related entries
T5 sequence (whole entry): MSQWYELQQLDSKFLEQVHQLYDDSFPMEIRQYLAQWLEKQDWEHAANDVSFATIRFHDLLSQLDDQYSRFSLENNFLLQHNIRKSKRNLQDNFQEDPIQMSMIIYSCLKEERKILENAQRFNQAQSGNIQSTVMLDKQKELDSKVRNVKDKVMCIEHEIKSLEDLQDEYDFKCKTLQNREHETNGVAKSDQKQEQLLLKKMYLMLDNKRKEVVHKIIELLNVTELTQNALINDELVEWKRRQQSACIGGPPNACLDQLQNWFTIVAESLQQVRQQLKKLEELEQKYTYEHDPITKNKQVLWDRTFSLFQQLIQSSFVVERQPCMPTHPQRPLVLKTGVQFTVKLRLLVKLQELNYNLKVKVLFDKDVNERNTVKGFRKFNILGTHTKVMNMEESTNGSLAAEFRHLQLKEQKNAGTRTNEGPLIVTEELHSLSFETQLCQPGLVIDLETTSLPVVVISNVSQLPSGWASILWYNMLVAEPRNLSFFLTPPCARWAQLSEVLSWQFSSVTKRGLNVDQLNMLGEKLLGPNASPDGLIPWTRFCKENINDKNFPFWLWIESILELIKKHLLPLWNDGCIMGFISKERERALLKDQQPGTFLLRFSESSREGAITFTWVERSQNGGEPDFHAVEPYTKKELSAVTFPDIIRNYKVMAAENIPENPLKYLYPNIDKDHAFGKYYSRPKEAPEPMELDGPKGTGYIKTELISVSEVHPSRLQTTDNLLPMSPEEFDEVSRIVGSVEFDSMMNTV
In short: as §1

WAS = target: T6, WAS (UniProt P42768)
T6 sequence (whole entry): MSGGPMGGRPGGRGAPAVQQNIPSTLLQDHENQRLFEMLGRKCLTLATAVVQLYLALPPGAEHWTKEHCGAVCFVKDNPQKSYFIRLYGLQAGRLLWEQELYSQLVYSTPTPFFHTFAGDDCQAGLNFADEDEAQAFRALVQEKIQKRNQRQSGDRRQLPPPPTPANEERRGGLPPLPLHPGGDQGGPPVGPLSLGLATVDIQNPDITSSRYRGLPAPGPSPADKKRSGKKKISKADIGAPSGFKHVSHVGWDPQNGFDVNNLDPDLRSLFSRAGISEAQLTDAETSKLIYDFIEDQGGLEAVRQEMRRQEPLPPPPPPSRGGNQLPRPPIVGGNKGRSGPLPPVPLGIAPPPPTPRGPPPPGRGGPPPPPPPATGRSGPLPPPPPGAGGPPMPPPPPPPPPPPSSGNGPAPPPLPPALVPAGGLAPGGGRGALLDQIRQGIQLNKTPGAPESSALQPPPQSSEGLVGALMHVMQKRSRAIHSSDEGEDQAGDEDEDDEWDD
In short: as §1

## Nc1nc2c(ncn2[C@@H]2O[C@H](COP(=O)(O)OP(=O)(O)OP(=O)(O)O)[C@@H](O)[C@H]2O)c(=O)[nH]1 [guanosine triphosphate]
UQCRFS1; concentration: 4mM
  NP40-soluble protein abundance: 0.898 ± 0.035
UQCRFS1; concentration: 6mM
  NP40-soluble protein abundance: 0.922 ± 0.019
UQCRFS1; concentration: 8mM
  NP40-soluble protein abundance: 0.93 ± 0.016
UQCRFS1; concentration: 10mM
  NP40-soluble protein abundance: 0.875 ± 0.051
[1]; concentration: 0.1mM
  NP40-soluble protein abundance: 0.975 ± 0.043
[1]; concentration: 0.5mM
  NP40-soluble protein abundance: 0.963 ± 0.028
[1]; concentration: 1mM
  NP40-soluble protein abundance: 0.905 ± 0.038
[1]; concentration: 2mM
  NP40-soluble protein abundance: 0.894 ± 0.012
[1]; concentration: 4mM
  NP40-soluble protein abundance: 0.868 ± 0.023
[1]; concentration: 6mM
  NP40-soluble protein abundance: 0.858 ± 0.018
[1]; concentration: 8mM
  NP40-soluble protein abundance: 0.838 ± 0.031
[1]; concentration: 10mM
  NP40-soluble protein abundance: 0.834 ± 0.021
[2]; concentration: 0.1mM
  NP40-soluble protein abundance: 1.08 ± 0.085
[2]; concentration: 0.5mM
  NP40-soluble protein abundance: 0.952 ± 0.018
[2]; concentration: 1mM
  NP40-soluble protein abundance: 1.04 ± 0.1
[2]; concentration: 2mM
  NP40-soluble protein abundance: 1.04 ± 0.14
[2]; concentration: 4mM
  NP40-soluble protein abundance: 0.916 ± 0.054
[2]; concentration: 6mM
  NP40-soluble protein abundance: 1.04 ± 0.035
[2]; concentration: 8mM
  NP40-soluble protein abundance: 0.88 ± 0.051
[2]; concentration: 10mM
  NP40-soluble protein abundance: 0.86 ± 0.15
UniProt P35626; concentration: 0.1mM
  NP40-soluble protein abundance: 1.05 ± 0.097
UniProt P35626; concentration: 0.5mM
  NP40-soluble protein abundance: 1.05 ± 0.085
UniProt P35626; concentration: 1mM
  NP40-soluble protein abundance: 0.943 ± 0.1
UniProt P35626; concentration: 2mM
  NP40-soluble protein abundance: 0.96 ± 0.066
UniProt P35626; concentration: 4mM
  NP40-soluble protein abundance: 0.926 ± 0.077
UniProt P35626; concentration: 6mM
  NP40-soluble protein abundance: 0.969 ± 0.035
UniProt P35626; concentration: 8mM
  NP40-soluble protein abundance: 0.926 ± 0.025
UniProt P35626; concentration: 10mM
  NP40-soluble protein abundance: 0.878 ± 0.062
[3]; concentration: 0.1mM
  NP40-soluble protein abundance: 1.02 ± 0.033
[3]; concentration: 0.5mM
  NP40-soluble protein abundance: 1.01 ± 0.025
[3]; concentration: 1mM
  NP40-soluble protein abundance: 0.972 ± 0.034
[3]; concentration: 2mM
  NP40-soluble protein abundance: 0.941 ± 0.045
[3]; concentration: 4mM
  NP40-soluble protein abundance: 0.928 ± 0.045
[3]; concentration: 6mM
  NP40-soluble protein abundance: 0.921 ± 0.06
[3]; concentration: 8mM
  NP40-soluble protein abundance: 0.926 ± 0.025
[3]; concentration: 10mM
  NP40-soluble protein abundance: 0.875 ± 0.053
WAS; concentration: 0.1mM
  NP40-soluble protein abundance: 0.925 ± 0.064
WAS; concentration: 0.5mM
  NP40-soluble protein abundance: 0.849 ± 0.013
WAS; concentration: 1mM
  NP40-soluble protein abundance: 0.973 ± 0.06
WAS; concentration: 2mM
  NP40-soluble protein abundance: 0.9283 ± 0.005
WAS; concentration: 4mM
  NP40-soluble protein abundance: 0.947 ± 0.017
WAS; concentration: 6mM
  NP40-soluble protein abundance: 0.926 ± 0.034
WAS; concentration: 8mM
  NP40-soluble protein abundance: 1 ± 0.048
WAS; concentration: 10mM
  NP40-soluble protein abundance: 1.01 ± 0.067

Reference: the supplement of paper PMC6411743
